This assay concerns the target T1, Flag-tagged 6-phosphogluconate dehydrogenase (6PGD) (UniProt P52209).
T1 sequence: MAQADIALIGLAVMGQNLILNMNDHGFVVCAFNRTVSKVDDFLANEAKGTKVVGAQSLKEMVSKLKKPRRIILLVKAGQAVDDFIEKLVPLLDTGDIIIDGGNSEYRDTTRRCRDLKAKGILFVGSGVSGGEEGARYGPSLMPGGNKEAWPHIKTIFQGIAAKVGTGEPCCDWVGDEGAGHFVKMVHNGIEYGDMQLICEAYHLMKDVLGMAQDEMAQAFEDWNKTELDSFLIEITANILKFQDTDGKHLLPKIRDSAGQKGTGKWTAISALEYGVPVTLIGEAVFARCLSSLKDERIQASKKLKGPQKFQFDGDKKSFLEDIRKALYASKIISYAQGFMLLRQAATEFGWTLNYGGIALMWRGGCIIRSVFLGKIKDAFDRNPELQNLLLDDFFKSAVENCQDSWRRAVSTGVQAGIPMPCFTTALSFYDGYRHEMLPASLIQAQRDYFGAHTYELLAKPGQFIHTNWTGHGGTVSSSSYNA
As to the kind of experiment: co-IP; 6PGD Flag pull-down from HCT116, HCT8 and LoVo cells, western blotting of m6A-related proteins. (In general: Immunoblotting shows a protein as a band on a membrane.)

By UniProt entry, the sequences of proteins in these tests, tags left out.
UniProt Q86U44: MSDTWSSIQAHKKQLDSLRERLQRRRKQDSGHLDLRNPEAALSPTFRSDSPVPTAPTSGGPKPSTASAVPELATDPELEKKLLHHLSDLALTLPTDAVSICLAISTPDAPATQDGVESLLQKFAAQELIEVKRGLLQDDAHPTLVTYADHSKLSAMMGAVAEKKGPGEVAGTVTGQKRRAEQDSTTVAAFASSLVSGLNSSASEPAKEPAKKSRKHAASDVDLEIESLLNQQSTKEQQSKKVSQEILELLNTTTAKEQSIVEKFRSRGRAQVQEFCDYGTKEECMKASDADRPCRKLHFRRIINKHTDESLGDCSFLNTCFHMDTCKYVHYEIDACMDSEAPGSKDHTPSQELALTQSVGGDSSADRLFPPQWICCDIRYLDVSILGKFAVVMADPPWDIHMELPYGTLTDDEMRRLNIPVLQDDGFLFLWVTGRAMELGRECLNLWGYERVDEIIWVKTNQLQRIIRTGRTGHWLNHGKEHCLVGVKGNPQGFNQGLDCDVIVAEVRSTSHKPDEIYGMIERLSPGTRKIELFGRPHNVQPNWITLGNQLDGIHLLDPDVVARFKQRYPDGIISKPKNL

No constants are given. Whether binding was seen depends on the method and setting. Binding seen in cells or lysates may run through a third protein. Sequences can lack the tags named with a protein.

Our source for the binding values is publication PMC12224427.

Turning to “METTL3, endogenous (from UniProt Q86U44 1-580) (enzyme)”, the binding entry was “no binding”.
